For assay [1], the target named is T1, PEAR1 ectodomain, monomeric biotinylated bait (human) (UniProt Q5VY43).
T1 sequence (chain, biotin (on the biotinylatable peptide tag)): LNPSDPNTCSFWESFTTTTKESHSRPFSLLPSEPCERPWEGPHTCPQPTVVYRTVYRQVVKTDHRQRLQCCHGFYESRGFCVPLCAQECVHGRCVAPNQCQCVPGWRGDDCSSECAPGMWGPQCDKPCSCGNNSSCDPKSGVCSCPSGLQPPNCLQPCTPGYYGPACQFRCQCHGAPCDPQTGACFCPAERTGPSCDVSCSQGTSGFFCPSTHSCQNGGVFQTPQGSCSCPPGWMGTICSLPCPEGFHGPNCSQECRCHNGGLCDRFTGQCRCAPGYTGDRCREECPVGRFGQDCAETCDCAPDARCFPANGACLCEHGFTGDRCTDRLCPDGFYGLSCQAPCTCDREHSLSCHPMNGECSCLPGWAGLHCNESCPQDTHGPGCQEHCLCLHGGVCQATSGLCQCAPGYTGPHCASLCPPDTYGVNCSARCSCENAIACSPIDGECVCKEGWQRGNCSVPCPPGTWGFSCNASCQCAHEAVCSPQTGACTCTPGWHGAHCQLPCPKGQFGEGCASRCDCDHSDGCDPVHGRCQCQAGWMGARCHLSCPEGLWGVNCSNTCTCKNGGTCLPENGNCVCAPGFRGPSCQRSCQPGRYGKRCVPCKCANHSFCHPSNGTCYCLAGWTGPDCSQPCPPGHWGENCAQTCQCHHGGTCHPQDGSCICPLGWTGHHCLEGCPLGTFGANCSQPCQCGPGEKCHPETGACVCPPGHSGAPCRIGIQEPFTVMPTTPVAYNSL
The experiment in a line: AVEXIS (avidity-based extracellular interaction screen); competition: PEAR1 as plate-immobilised bait, FcεR1α prey preincubated with IgE, IgE fragments or control IgG (with or without 2.5 μg omalizumab); nitrocefin read-out; rat Cd200-Cd200R as control interaction.

The chains behind the UniProt entries cited, without tags or fusion partners. Residues count along the entry.
UniProt P12319, residues 26-205: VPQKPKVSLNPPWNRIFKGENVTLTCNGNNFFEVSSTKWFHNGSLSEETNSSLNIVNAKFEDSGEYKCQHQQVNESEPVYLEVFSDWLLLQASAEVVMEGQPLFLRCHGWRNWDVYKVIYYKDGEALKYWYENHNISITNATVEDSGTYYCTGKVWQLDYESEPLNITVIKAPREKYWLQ

The target in assay [2] is T1, PEAR1 ectodomain, monomeric biotinylated bait (human). In words: peptide or protein array; AVEXIS on a microarray: purified biotinylated baits printed in six 3-fold dilutions on streptavidin-coated hydrogel slides; pentameric FLAG-tagged normalised preys incubated 1 h; anti-FLAG-HRP and tyramide Alexa Fluor 555; 22 °C; purification of the preys not told.
The target of assay [3] is FcεR1α ectodomain, monomeric biotinylated bait (human) (UniProt P12319). Described as above.

These are yes or no findings as the source states them, for the method shown. Some entries that bind do so weakly or less than the wild type. For part of these data: Sequences can lack the tags named with a protein.

As to “FcεR1α entire ectodomain, pentameric prey (from UniProt P12319 26-205) (receptor)”, the binding entry in assay [1] and in assay [2] was “binds” each time.

B1: PEAR1 entire ectodomain, recombinant pentameric FLAG-tagged soluble prey (receptor, UniProt Q5VY43 21-755)
chain: LNPSDPNTCSFWESFTTTTKESHSRPFSLLPSEPCERPWEGPHTCPQPTVVYRTVYRQVVKTDHRQRLQCCHGFYESRGFCVPLCAQECVHGRCVAPNQCQCVPGWRGDDCSSECAPGMWGPQCDKPCSCGNNSSCDPKSGVCSCPSGLQPPNCLQPCTPGYYGPACQFRCQCHGAPCDPQTGACFCPAERTGPSCDVSCSQGTSGFFCPSTHSCQNGGVFQTPQGSCSCPPGWMGTICSLPCPEGFHGPNCSQECRCHNGGLCDRFTGQCRCAPGYTGDRCREECPVGRFGQDCAETCDCAPDARCFPANGACLCEHGFTGDRCTDRLCPDGFYGLSCQAPCTCDREHSLSCHPMNGECSCLPGWAGLHCNESCPQDTHGPGCQEHCLCLHGGVCQATSGLCQCAPGYTGPHCASLCPPDTYGVNCSARCSCENAIACSPIDGECVCKEGWQRGNCSVPCPPGTWGFSCNASCQCAHEAVCSPQTGACTCTPGWHGAHCQLPCPKGQFGEGCASRCDCDHSDGCDPVHGRCQCQAGWMGARCHLSCPEGLWGVNCSNTCTCKNGGTCLPENGNCVCAPGFRGPSCQRSCQPGRYGKRCVPCKCANHSFCHPSNGTCYCLAGWTGPDCSQPCPPGHWGENCAQTCQCHHGGTCHPQDGSCICPLGWTGHHCLEGCPLGTFGANCSQPCQCGPGEKCHPETGACVCPPGHSGAPCRIGIQEPFTVMPTTPVAYNSL
As to B1, the binding entry in assay [3] is “binds”.

The values are drawn from publication PMC4424398, “A Human Platelet Receptor Protein Microarray Identifies the High Affinity Immunoglobulin E Receptor Subunit α (FcεR1α) as an Activating Platelet Endothelium Aggregation Receptor 1 (PEAR1) Ligand* ^([image sbox.jpg])” (Molecular & Cellular Proteomics : MCP, 2015).
